# Source: PubChem BioAssay AID2685 (National Center for Advancing Translational Sciences (NCATS), 2010)
# The list shows a part of the results. The main result of the screen is listed elsewhere. These columns were measured beside it and carry no call. Compounds called inactive in the main read-out are mostly missing here. Potencies come from curve fits of mixed quality, noted in brackets.
# Test: qHTS Assay for Lipid Storage Modulators in Drosophila S3 Cells;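 on cell number change: cells counted by Cell Tracker Red CMTPX staining in the red channel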
# Conditions: BODIPY lipid droplet fluorescence, 18-24 h; for cell number change: measured here: cell count max response, cells fed with added oleic acid
# Outline: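 Drosophila S3 cells loaded with oleic acid (400 uM, as added) and compounds at several concentrations; lipid droplets imaged by 488-nm laser-scanning cytometry, 500–530 nm intensity and object ratio to cell channel. Percent activity normalized to 20 uM Triacsin C.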
# [1] = measured here: lipid fluorescence (Fed channel) AC50, cells fed with added oleic acid
# [2] = measured here: cell number channel AC50, cells fed with added oleic acid
SMILES,cell number change,AC50 [1],AC50 [2]
CCOC(=O)c1sc(S(C)(=O)=O)c2c1CCc1conc1-2,-39.6%,"18.4 µM [falling, single point]",
CCOc1cccc2sc(NC(=O)CC)nc12,,"0.291 µM [falling, partial curve, poor fit]",
CC[n+]1ccc2cc(OC)c(OC)cc2c1Cc1ccc(OC)c(OC)c1,,"0.92 µM [falling, single point]","0.58 µM [rising, single point]"
CCCCN(C(=O)c1cc(Cl)nc2ccccc12)c1c(N)n(Cc2ccccc2)c(=O)[nH]c1=O,-15.2%,,
O=C(/C=C/c1ccc2c(c1)OCO2)c1ccccn1,-20.5%,"29.1 µM [falling, single point]",
Cc1ccc(Cl)cc1N1CCN(S(=O)(=O)c2cc3c(cc2C)NC(=O)CO3)CC1,18.4%,,
CN(CC(=O)N1CCN(Cc2ccccc2)CC1)C(=O)Cc1cccc2ccccc12,2.68%,"2.31 µM [falling, partial curve]",
COc1ccc(Cl)cc1NC(=O)NCCN1CCCCC1,-35.4%,"29.1 µM [falling, single point]","0.92 µM [falling, full curve, poor fit]"
CC(NS(=O)(=O)c1ccc(OCC(=O)NCc2cccnc2)cc1)c1ccccc1 (centres undefined),,"1.84 µM [falling, full curve]",
Cc1cccc(C)c1NC(=O)N1CCC(n2cnc3ccccc32)CC1,-81.4%,,"3.66 µM [falling, full curve]"
CC(C)(C)SCCNC(=O)c1ccc(Cl)c([N+](=O)[O-])c1,66.7%,,"18.4 µM [rising, partial curve]"
CCOCCCNC(=O)C(NC(=O)c1ccc(=O)[nH]c1)c1ccccc1 (centres undefined),18.8%,"3.26 µM [rising, full curve, poor fit]",
CC(C)NC(=O)CSCc1cccc(Br)c1,-11.4%,"3.26 µM [falling, single point]","0.731 µM [falling, full curve, poor fit]"
Cn1c(=O)c(C(=O)NCCO)c(O)c2ccccc21,,"16.4 µM [rising, partial curve]",
Cn1cccc1Cc1nnc(SCC(=O)N2CCc3ccccc32)n1-c1ccc(F)cc1,-16.2%,"0.116 µM [falling, full curve, poor fit]",
O=C(CCN1C(=O)/C(=C/c2cccs2)SC1=S)Nc1ccc(C(=O)O)cc1,24.4%,,
CC1(c2cc(F)ccc2F)NC(=O)N(CC(=O)Nc2cccc(S(=O)(=O)N3CCCC3)c2)C1=O (centres undefined),-40.3%,"4.61 µM [falling, partial curve, poor fit]","0.0517 µM [falling, full curve, poor fit]"
CN(CC(=O)Nc1cccc(F)c1)C(=O)CNS(=O)(=O)c1ccc(N(C)C)c([N+](=O)[O-])c1,-11.4%,,"0.82 µM [falling, full curve, poor fit]"
Cc1cc(C(=O)COc2ccccc2C(N)=O)c(C)n1C1CC1,,"5.8 µM [rising, single point]",
COc1ccc(CCNC(=O)c2cc(-c3ccc(Cl)c(Cl)c3)oc2C)cc1,-28.6%,,

SMILES,cell number change,AC50 [1],AC50 [2]
O=C(O)CC(=O)Nc1cc(Cl)ccc1O,-70.9%,,"4.61 µM [falling, full curve]"
COc1ccc(OC)c(N(CC(=O)Nc2cccc(C(F)(F)F)c2)S(C)(=O)=O)c1,,"23.1 µM [rising, single point]",
Cc1ccc(C)c(S(=O)(=O)N2CCCC2CNC(=O)C(=O)NCCc2ccco2)c1 (centres undefined),17.2%,"29.1 µM [rising, single point]",
Cc1cccc(C(=O)NNC(=O)CCC(=O)Nc2cccc(Cl)c2C)c1,11.8%,"0.651 µM [rising, single point]",
O=C(CCN1C(=O)C2CC=CCC2C1=O)Nc1nccs1 (centres undefined),-10.5%,"29.1 µM [rising, single point]",
COc1ccc(C(=O)OCc2nnc(-c3ccccc3)o2)cc1S(=O)(=O)N1CCOCC1,-51.8%,,"16.4 µM [falling, single point]"
COc1cc(C(=O)OCCCN2CCOCC2)ccc1O,10.5%,,
Cc1ccc(C)c(-n2nnnc2SCC(=O)c2c(N)n(C)c(=O)n(C)c2=O)c1,-95.8%,"20.6 µM [falling, single point]","20.6 µM [falling, single point]"
O=C(CSc1nnc(Nc2ccccc2F)s1)NC(=O)CN1CCCC1=O,-51.4%,"0.0116 µM [falling, full curve]","0.0058 µM [falling, full curve]"
CCSc1nnc(NC(=O)NC(C)(C(F)(F)F)C(F)(F)F)s1,-47.2%,"25.9 µM [falling, partial curve, poor fit]","32.6 µM [falling, partial curve]"
O=C(Cc1ccc(Br)cc1)NC1CCCc2ccccc21 (centres undefined),-16.7%,,
CC12CC3CC(C)(C1)CC(CN)(C3)C2,,,"0.103 µM [rising, full curve, poor fit]"
Cn1nccc1NC(=O)Nc1cccc(Cl)c1Cl,36.1%,,"11.6 µM [rising, partial curve, poor fit]"
O=C1CCC([N+](=O)[O-])C(c2cccc([N+](=O)[O-])c2)N1 (centres undefined),,"0.291 µM [rising, full curve, poor fit]",
CCCc1cc(=O)oc2c3c(cc(OCC(=O)NCc4ccncc4)c12)OC(C)(C)CC3,8.74%,"16.4 µM [falling, single point]",
O=C1c2ccccc2C(=O)N1c1cccnc1,,"0.00461 µM [falling, full curve, poor fit]",
CN(C)S(=O)(=O)c1ccc(N2CCCC2)c(C(=O)Nc2ccccc2Br)c1,-11.4%,,
COc1ccc2c(c1)CCc1c(C(=O)Nc3ccc(OC)c(OC)c3)noc1-2,16.6%,"0.00461 µM [rising, full curve, poor fit]",
COc1ccc(S(=O)(=O)N2CCC(C(N)=O)CC2)c2ccccc12,-0.326%,"3.66 µM [falling, full curve]",

# Three compounds picked at random from the list so far, as already listed:
SMILES,cell number change,AC50 [1],AC50 [2]
Cn1nccc1NC(=O)Nc1cccc(Cl)c1Cl,36.1%,,"11.6 µM [rising, partial curve, poor fit]"
O=C1CCC([N+](=O)[O-])C(c2cccc([N+](=O)[O-])c2)N1 (centres undefined),,"0.291 µM [rising, full curve, poor fit]",
O=C(O)CC(=O)Nc1cc(Cl)ccc1O,-70.9%,,"4.61 µM [falling, full curve]"
